Publication PMC2064872
Results are given in words; binding and its absence hold for the method and conditions named. In cells and extracts the contact can be indirect.

Sequences of proteins named here, by UniProt entry; tags and fusion partners are left off.
UniProt Q13049: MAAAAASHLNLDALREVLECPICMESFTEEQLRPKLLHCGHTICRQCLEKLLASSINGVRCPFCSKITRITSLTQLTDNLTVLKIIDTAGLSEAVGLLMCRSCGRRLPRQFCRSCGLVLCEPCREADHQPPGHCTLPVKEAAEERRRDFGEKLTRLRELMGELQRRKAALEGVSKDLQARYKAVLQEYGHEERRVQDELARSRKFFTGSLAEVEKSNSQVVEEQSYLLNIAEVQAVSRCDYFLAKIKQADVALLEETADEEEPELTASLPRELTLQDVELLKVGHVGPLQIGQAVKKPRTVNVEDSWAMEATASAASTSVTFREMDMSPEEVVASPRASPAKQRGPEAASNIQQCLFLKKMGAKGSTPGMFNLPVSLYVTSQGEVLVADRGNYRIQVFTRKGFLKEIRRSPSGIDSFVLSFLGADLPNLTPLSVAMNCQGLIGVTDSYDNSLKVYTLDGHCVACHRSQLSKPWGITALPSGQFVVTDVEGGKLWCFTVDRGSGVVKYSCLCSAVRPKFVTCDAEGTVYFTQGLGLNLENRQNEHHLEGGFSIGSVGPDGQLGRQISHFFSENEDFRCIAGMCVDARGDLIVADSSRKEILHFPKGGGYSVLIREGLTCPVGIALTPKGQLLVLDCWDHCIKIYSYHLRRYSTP
UniProt P49792: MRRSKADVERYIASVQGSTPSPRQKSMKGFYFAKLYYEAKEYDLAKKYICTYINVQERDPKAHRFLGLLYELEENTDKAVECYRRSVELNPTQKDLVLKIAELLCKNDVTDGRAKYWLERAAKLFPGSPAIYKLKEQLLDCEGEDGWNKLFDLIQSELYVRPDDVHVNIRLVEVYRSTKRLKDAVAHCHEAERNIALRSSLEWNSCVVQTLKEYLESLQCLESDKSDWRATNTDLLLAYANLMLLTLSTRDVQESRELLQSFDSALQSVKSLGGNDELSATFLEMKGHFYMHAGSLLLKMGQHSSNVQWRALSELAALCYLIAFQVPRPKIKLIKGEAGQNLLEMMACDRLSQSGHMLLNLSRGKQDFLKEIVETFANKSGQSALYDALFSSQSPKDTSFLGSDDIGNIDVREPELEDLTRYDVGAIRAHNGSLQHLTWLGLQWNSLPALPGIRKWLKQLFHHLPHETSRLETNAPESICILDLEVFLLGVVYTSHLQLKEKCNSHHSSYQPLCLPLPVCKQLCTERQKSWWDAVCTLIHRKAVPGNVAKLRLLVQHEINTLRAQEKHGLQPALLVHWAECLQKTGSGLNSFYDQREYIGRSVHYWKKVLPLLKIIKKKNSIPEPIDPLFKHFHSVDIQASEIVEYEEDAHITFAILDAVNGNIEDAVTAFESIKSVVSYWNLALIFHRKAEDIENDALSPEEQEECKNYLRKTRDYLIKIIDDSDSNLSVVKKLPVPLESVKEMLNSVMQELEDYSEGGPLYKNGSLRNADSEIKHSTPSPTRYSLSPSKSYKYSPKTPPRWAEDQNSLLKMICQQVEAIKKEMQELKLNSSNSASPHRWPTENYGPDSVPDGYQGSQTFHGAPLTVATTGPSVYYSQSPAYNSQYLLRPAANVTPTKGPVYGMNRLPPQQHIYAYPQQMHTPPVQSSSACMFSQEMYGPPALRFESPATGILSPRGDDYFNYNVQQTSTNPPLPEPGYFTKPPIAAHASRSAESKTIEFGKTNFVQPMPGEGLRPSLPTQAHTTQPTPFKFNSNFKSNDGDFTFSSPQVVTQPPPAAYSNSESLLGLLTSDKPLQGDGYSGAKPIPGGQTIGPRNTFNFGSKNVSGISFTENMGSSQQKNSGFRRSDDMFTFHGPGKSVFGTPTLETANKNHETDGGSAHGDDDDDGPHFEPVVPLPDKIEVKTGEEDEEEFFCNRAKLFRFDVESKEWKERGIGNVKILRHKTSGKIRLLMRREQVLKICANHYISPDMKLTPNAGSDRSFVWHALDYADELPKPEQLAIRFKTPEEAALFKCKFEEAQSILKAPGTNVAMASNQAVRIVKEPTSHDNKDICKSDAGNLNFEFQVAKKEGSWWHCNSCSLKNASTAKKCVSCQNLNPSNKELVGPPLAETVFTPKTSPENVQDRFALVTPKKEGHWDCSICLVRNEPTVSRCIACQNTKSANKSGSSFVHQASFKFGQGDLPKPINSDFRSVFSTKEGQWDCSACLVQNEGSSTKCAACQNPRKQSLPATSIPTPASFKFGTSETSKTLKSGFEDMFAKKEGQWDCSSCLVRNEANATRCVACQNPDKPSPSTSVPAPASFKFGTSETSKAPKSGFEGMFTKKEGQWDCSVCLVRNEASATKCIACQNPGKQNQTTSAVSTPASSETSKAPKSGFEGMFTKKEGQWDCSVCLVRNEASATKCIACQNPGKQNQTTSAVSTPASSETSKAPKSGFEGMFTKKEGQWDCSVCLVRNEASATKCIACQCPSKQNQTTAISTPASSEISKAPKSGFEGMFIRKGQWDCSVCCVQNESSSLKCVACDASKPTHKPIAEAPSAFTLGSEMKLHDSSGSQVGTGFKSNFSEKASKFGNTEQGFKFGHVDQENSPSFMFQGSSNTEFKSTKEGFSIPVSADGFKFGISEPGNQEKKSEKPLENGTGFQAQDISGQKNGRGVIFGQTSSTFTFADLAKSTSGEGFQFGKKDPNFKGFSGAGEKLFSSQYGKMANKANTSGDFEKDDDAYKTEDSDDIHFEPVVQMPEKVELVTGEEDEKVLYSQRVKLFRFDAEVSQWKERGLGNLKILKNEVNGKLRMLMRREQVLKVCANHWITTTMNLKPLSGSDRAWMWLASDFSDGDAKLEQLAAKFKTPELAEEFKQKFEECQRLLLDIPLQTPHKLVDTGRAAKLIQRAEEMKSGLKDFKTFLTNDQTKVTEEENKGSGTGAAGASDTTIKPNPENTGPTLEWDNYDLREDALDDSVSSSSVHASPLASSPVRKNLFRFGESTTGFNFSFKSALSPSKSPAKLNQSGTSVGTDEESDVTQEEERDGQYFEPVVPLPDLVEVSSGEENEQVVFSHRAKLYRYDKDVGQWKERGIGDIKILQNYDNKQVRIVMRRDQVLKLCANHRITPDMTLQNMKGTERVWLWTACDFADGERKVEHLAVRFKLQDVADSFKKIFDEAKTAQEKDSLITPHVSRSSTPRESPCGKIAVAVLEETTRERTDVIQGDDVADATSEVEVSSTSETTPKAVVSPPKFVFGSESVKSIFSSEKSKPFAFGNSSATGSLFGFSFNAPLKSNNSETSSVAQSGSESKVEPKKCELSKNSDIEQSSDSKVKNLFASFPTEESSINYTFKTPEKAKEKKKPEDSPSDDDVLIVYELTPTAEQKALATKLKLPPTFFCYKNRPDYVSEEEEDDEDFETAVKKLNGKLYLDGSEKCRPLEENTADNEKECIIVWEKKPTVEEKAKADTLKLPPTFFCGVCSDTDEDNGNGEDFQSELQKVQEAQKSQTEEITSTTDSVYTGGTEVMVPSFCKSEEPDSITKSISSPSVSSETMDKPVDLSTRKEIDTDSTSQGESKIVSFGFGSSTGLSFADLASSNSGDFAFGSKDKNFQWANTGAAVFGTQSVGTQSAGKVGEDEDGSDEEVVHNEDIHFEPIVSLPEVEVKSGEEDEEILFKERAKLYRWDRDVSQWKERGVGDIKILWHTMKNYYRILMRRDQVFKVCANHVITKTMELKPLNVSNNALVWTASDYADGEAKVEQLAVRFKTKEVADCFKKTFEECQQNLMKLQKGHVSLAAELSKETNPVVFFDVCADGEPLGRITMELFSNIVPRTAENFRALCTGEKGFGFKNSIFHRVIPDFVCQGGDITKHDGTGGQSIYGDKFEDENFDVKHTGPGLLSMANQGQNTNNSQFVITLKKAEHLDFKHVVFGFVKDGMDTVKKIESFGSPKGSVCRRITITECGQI

Target: Trim32, endogenous in HeLa cells (human (endogenous in HeLa)) (UniProt Q13049)
Assay: co-IP; endogenous proteins of MG132-treated HeLa cells; anti-Trim32 (or control IgG) as the IP antibody; immunoblot

**Q.** Which binding does the source give for “RanBP2, endogenous in HeLa cells (from UniProt P49792 1-3224)” here?
**A.** no binding
